Patent US20230105108A1, “COMPOUNDS FOR THE TREATMENT OF BACTERIAL INFECTIONS AND POTENTIATION OF ANTIBIOTICS” (GEORGIA STATE UNIVERSITY RESEARCH FOUNDATION, INC., priority 2019, published 2023)
For some of these results: At least one read-out could not be matched to a standard name with certainty. Some results were stated once for a whole list of compounds, not compound by compound.

Legend:
E. coli (ATCC 25922) = assay: MIC determination, sensitization fold and FIC index on E. coli; type: cell-based; conditions: MD-124 concentration 5 μg/ml
Procedure: Bacteria culture and MICs determination: Gram-negative bacteria were cultured in Mueller Hinton II cation-adjusted broth. Gram-positive bacteria were cultured in LB broth. Mycobacterium smegmatis was cultured in Middlebrook 7H9 Broth. MICs of antibiotics itself were determined by performing two-fold serial dilutions of antibiotics. MICs of antibiotics in the presence of bacterial sensitizers were determined by performing two-fold serial dilutions of antibiotics with or without a constant concentration of bacterial sensitizers. The MICs tests were performed on 96-well plates with a final volume of 200 μl Mueller Hinton II cation-adjusted broth in each well. Each well was inoculated with 5×10^5 CFU/ml bacteria and was incubated for 24 h at 37° C. with continuous shaking of 200 rpm. The bacterial density was then determined by OD600. Bacterial growth %=OD600 of antibiotic treatment group/OD600 of antibiotic non-treatment group. MICs was determined as the concentrations that inhibit more than 90% of bacteria growth.
Sensitization fold determination and FIC index calculations: Sensitization fold=MIC of antibiotic only/MIC of antibiotic with bacterial sensitizer. […] Since the MICs were determined by performing two-fold serial dilutions of antibiotic, so the sensitization fold can is the times of 2.
FIC index between compound a and b was calculated according to the formula below: […]

K. pneumoniae (43816) = assay: MIC, sensitization fold and FIC index on K. pneumoniae; type: cell-based

With CO[C@H]1/C=C/O[C@@]2(C)Oc3c(C)c(O)c4c(O)c(c(/C=N/N5CCN(C)CC5)c(O)c4c3C2=O)NC(=O)/C(C)=C\C=C\[C@H](C)[C@H](O)[C@@H](C)[C@@H](O)[C@@H](C)[C@H](OC(C)=O)[C@@H]1C [Rifampicin] as the compound, how does the “MIC of AB with MD-124” value (E. coli (ATCC 25922)) read?
The value was 0.019 µg/mL.

And the “MIC of AB with MD-124” value (E. coli (ATCC 25922); listed as rifampicin)?
Its value is 0.019 µg/mL.

What about the “MIC of antibiotic with 10 μg/ml of MD-124” value (K. pneumoniae (43816); K. pneumoniae) of the same compound?
The value was no more than 0.2 µg/mL.

What about the “Sensitization fold by MD-124 (checkerboard assay)” value (K. pneumoniae (43816); K. pneumoniae towards the antibiotic) of the same compound?
The value was no less than 512 fold.
